Our source for the binding values is publication PMC10620822.

For one experiment, the target named is Flag-YY1 (UniProt P25490). Description: co-IP; HEK293T cells co-transfected with Flag- and HA-tagged CENPA and YY1 (or Flag-YY1 truncations with HA-CENPA).
The next experiment addresses Flag-CENPA (human) (UniProt P49450). The description is as above.
In experiment [1] the target is endogenous CENPA (Huh7) (human (endogenous in Huh7)) (UniProt P49450). The experiment in a line: co-IP; endogenous proteins, whole-cell lysate from Huh7 cells, IgG as control.

Results are given in words; binding and its absence hold for the method and conditions named. In cells and extracts the contact can be indirect. Some results given as binding are weak or reduced against the parent protein; the word gives no strength.

Take HA-CENPA (from UniProt P49450 1-140): the binding entry in the experiment with Flag-YY1 is listed as “binds”.
For HA-YY1 (from UniProt P25490 1-414), in the experiment with Flag-CENPA (human), the binding entry is “binds”.
Turning to “endogenous YY1 (Huh7) (from UniProt P25490 1-414)”, in experiment [1], the binding entry is listed as “binds”.
